The target in the experiment is T1, HA-PRR11-WT (proline-rich 11) (human) (UniProt Q96HE9).
T1 sequence: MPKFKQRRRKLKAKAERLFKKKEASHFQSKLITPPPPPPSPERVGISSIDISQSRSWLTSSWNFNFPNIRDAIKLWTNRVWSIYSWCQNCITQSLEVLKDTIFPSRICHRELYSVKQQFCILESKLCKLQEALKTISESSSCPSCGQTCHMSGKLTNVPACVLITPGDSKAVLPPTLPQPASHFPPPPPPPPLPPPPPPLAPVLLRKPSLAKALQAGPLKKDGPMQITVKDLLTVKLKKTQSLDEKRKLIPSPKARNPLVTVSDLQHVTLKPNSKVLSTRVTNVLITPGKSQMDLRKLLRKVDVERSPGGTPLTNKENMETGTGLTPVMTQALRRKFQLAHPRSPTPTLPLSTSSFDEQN
In words: co-IP; 293T cells transfected with HA-PRR11 (WT, fragments or mutants) and Flag-GSK3β or Flag-FBXW7 (WT or mutants); MG132 10 μM for 6 h before collection; IP with HA or Flag antibody, Protein A/G magnetic beads, Western blot; in some panels λ-PPase added to extracts, CHIR-99021, siGSK3β or GSK3β overexpression. A general note: Immunoblotting shows a protein as a band on a membrane.

Protein sequences, listed by entry. Tags and fused reporters are not part of them. Lines headed by an entry give the natural chain unless they say otherwise; changes in a name come on top.
UniProt Q969H0: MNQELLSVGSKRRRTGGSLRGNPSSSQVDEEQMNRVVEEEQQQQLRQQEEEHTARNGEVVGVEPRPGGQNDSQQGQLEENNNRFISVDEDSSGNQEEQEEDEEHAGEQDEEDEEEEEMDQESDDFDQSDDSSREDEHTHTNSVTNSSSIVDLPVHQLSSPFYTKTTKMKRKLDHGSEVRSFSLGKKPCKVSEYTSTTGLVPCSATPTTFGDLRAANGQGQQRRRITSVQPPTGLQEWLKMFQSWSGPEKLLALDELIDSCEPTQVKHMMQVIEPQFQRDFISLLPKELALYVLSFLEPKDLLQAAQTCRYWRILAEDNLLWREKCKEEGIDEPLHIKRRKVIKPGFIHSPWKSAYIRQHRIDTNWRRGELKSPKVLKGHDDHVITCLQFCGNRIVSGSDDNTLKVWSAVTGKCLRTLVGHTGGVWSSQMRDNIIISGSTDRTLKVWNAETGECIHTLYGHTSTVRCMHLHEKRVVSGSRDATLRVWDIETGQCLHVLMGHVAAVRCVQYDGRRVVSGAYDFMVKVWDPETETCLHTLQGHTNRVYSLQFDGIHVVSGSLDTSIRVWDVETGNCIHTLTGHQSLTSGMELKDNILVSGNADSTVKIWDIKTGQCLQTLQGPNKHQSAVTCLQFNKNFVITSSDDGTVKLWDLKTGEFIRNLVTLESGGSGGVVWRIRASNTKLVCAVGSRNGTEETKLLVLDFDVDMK

No constants are given. Whether binding was seen depends on the method and setting. In cells and extracts the contact can be indirect. Binding calls can cover weak binding; strength is not graded here. Where a sequence is shown, tags or fusion partners need not be part of it.

For the substance “Flag-FBXW7 (ΔF-box) (from UniProt Q969H0)”, the binding entry is given as “binds”.

(Values after publication PMC11898301.)
